Reference: paper PMC4038059
No constants are given. Whether binding was seen depends on the method and setting. Binding seen in cells or lysates may run through a third protein. Some binding calls cover weakened binding; strength is not graded here. Tags and fused reporters may be left off the sequences shown.

T1: mitofusin 2 (MFN2) (mouse (endogenous in mixed germ cells of C57BL/6 testes)) (UniProt Q80U63)
T1 sequence: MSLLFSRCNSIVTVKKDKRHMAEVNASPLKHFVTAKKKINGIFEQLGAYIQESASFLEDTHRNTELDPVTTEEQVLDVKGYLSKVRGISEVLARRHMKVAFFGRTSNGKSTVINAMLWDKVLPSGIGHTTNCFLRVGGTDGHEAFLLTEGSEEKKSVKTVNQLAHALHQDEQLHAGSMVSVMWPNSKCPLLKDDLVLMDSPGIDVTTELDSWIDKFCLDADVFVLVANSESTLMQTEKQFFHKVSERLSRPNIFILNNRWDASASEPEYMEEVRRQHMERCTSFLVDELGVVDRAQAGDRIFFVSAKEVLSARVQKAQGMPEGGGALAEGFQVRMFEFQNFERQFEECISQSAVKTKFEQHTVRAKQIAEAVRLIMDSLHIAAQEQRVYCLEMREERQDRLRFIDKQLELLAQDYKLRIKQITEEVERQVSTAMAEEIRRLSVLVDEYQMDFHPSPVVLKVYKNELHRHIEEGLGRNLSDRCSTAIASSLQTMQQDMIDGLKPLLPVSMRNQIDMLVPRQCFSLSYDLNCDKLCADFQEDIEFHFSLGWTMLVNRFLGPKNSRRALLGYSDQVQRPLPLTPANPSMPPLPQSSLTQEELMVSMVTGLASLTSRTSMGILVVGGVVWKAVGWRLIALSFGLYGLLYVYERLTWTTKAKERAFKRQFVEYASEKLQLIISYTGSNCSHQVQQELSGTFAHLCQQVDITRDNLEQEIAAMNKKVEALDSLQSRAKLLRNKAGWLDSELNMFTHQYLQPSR

T2: meiosis-specific nuclear structural 1 (MNS1) (mouse (endogenous in mixed germ cells of C57BL/6 testes)) (UniProt Q61884)
T2 sequence: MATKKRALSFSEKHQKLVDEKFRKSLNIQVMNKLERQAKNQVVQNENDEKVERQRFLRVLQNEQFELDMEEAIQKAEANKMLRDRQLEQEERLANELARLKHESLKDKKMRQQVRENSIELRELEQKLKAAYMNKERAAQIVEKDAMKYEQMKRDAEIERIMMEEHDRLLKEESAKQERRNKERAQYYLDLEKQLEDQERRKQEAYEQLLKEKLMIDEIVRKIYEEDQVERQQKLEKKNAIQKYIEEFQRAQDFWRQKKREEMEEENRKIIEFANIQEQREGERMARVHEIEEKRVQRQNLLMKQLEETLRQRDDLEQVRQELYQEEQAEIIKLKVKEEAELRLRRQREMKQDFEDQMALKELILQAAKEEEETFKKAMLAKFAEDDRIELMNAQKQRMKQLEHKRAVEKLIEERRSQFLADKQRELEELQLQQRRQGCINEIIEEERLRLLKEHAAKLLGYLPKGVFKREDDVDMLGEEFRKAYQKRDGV


How the values were obtained:
[1] = biological target: T1, mitofusin 2 (MFN2) (mouse (endogenous in mixed germ cells of C57BL/6 testes)); experiment: co-IP; Direct Magnetic IP/Co-IP Kit (Pierce); 5 ug of MNS1 purified antibody or MFN2 antibody coupled to N-hydroxysuccinimide-activated magnetic beads; 2 mg of mixed germ cell protein (IP Lysis/Wash Buffer lysate), rotation for 2 h; eluate analysed by SDS-PAGE and immunoblot with anti-MNS1 and anti-MFN2
[2] = biological target: T2, meiosis-specific nuclear structural 1 (MNS1) (mouse (endogenous in mixed germ cells of C57BL/6 testes)); experiment: as above

Row | binding [1] | binding [2] | Binder
1 | binds |  | meiosis-specific nuclear structural 1 (MNS1) (protein, UniProt Q61884 1-491) MATKKRALSFSEKHQKLVDEKFRKSLNIQVMNKLERQAKNQVVQNENDEKVERQRFLRVLQNEQFELDMEEAIQKAEANKMLRDRQLEQEERLANELARLKHESLKDKKMRQQVRENSIELRELEQKLKAAYMNKERAAQIVEKDAMKYEQMKRDAEIERIMMEEHDRLLKEESAKQERRNKERAQYYLDLEKQLEDQERRKQEAYEQLLKEKLMIDEIVRKIYEEDQVERQQKLEKKNAIQKYIEEFQRAQDFWRQKKREEMEEENRKIIEFANIQEQREGERMARVHEIEEKRVQRQNLLMKQLEETLRQRDDLEQVRQELYQEEQAEIIKLKVKEEAELRLRRQREMKQDFEDQMALKELILQAAKEEEETFKKAMLAKFAEDDRIELMNAQKQRMKQLEHKRAVEKLIEERRSQFLADKQRELEELQLQQRRQGCINEIIEEERLRLLKEHAAKLLGYLPKGVFKREDDVDMLGEEFRKAYQKRDGV
2 |  | binds | mitofusin 2 (MFN2) (protein, UniProt Q80U63 1-757) MSLLFSRCNSIVTVKKDKRHMAEVNASPLKHFVTAKKKINGIFEQLGAYIQESASFLEDTHRNTELDPVTTEEQVLDVKGYLSKVRGISEVLARRHMKVAFFGRTSNGKSTVINAMLWDKVLPSGIGHTTNCFLRVGGTDGHEAFLLTEGSEEKKSVKTVNQLAHALHQDEQLHAGSMVSVMWPNSKCPLLKDDLVLMDSPGIDVTTELDSWIDKFCLDADVFVLVANSESTLMQTEKQFFHKVSERLSRPNIFILNNRWDASASEPEYMEEVRRQHMERCTSFLVDELGVVDRAQAGDRIFFVSAKEVLSARVQKAQGMPEGGGALAEGFQVRMFEFQNFERQFEECISQSAVKTKFEQHTVRAKQIAEAVRLIMDSLHIAAQEQRVYCLEMREERQDRLRFIDKQLELLAQDYKLRIKQITEEVERQVSTAMAEEIRRLSVLVDEYQMDFHPSPVVLKVYKNELHRHIEEGLGRNLSDRCSTAIASSLQTMQQDMIDGLKPLLPVSMRNQIDMLVPRQCFSLSYDLNCDKLCADFQEDIEFHFSLGWTMLVNRFLGPKNSRRALLGYSDQVQRPLPLTPANPSMPPLPQSSLTQEELMVSMVTGLASLTSRTSMGILVVGGVVWKAVGWRLIALSFGLYGLLYVYERLTWTTKAKERAFKRQFVEYASEKLQLIISYTGSNCSHQVQQELSGTFAHLCQQVDITRDNLEQEIAAMNKKVEALDSLQSRAKLLRNKAGWLDSELNMFTHQYLQPSR
